Assay results reported in PMC11730294.
No constants are given. Whether binding was seen depends on the method and setting. In cells and extracts the contact can be indirect. Some binding calls cover weakened binding; strength is not graded here.

Amino acid sequences for entries named in this document (tags omitted). A change or cut given only in a name is not applied to a line headed by its entry.
UniProt Q01628, whole entry: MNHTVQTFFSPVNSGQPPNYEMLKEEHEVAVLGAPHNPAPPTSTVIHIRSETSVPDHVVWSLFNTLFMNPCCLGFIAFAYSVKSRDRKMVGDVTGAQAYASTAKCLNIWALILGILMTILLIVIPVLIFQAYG

Target: T1, endogenous STX8 (HEK293T) (human (endogenous in HEK293T)) (UniProt Q9UNK0)
T1 sequence: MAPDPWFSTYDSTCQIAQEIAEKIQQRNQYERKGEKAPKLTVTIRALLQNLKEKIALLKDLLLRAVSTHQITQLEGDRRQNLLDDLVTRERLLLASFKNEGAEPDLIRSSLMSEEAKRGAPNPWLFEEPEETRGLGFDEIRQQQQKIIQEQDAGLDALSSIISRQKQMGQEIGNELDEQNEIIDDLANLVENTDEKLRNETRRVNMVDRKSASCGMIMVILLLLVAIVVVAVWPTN
Test: co-IP; HEK293T stably expressing Empty Vector, IFITM3 WT-FLAG or IFITM3 G95L-FLAG, inoculated with IAV or medium for 18 h; endogenous STX8 immunoprecipitated with anti-STX8; blot anti-STX8, anti-FLAG, anti-VAMP8, anti-VAMP7

Substance	binding
IFITM3-FLAG G95L (from UniProt Q01628 1-133)	binds
IFITM3-FLAG WT (interferon-induced transmembrane protein 3) (from UniProt Q01628 1-133)	binds
